These are yes or no findings as the source states them, for the method shown. In cells and extracts the contact can be indirect. Here binding means that the protein was enriched with, or labelled near, the bait; the list need not be complete.
B1: NSDHL (protein, UniProt Q15738 1-373)
chain: MEPAVSEPMRDQVARTHLTEDTPKVNADIEKVNQNQAKRCTVIGGSGFLGQHMVEQLLARGYAVNVFDIQQGFDNPQVRFFLGDLCSRQDLYPALKGVNTVFHCASPPPSSNNKELFYRVNYIGTKNVIETCKEAGVQKLILTSSASVIFEGVDIKNGTEDLPYAMKPIDYYTETKILQERAVLGANDPEKNFLTTAIRPHGIFGPRDPQLVPILIEAARNGKMKFVIGNGKNLVDFTFVENVVHGHILAAEQLSRDSTLGGKAFHITNDEPIPFWTFLSRILTGLNYEAPKYHIPYWVAYYLALLLSLLVMVISPVIQLQPTFTPMRVALAGTFHYYSCERAKKAMGYQPLVTMDDAMERTVQSFRHLRRVK
B2: RARS (protein, UniProt P54136 1-660)
chain: MDVLVSECSARLLQQEEEIKSLTAEIDRLKNCGCLGASPNLEQLQEENLKLKYRLNILRKSLQAERNKPTKNMINIISRLQEVFGHAIKAAYPDLENPPLLVTPSQQAKFGDYQCNSAMGISQMLKTKEQKVNPREIAENITKHLPDNECIEKVEIAGPGFINVHLRKDFVSEQLTSLLVNGVQLPALGENKKVIVDFSSPNIAKEMHVGHLRSTIIGESISRLFEFAGYDVLRLNHVGDWGTQFGMLIAHLQDKFPDYLTVSPPIGDLQVFYKESKKRFDTEEEFKKRAYQCVVLLQGKNPDITKAWKLICDVSRQELNKIYDALDVSLIERGESFYQDRMNDIVKEFEDRGFVQVDDGRKIVFVPGCSIPLTIVKSDGGYTYDTSDLAAIKQRLFEEKADMIIYVVDNGQSVHFQTIFAAAQMIGWYDPKVTRVFHAGFGVVLGEDKKKFKTRSGETVRLMDLLGEGLKRSMDKLKEKERDKVLTAEELNAAQTSVAYGCIKYADLSHNRLNDYIFSFDKMLDDRGNTAAYLLYAFTRIRSIARLANIDEEMLQKAARETKILLDHEKEWKLGRCILRFPEILQKILDDLFLHTLCDYIYELATAFTEFYDSCYCVEKDRQTGKILKVNMWRMLLCEAVAAVMAKGFDILGIKPVQRM
B3: SLC25A3 (protein, UniProt Q00325 50-362)
chain: AVEEQYSCDYGSGRFFILCGLGGIISCGTTHTALVPLDLVKCRMQVDPQKYKGIFNGFSVTLKEDGVRGLAKGWAPTFLGYSMQGLCKFGFYEVFKVLYSNMLGEENTYLWRTSLYLAASASAEFFADIALAPMEAAKVRIQTQPGYANTLRDAAPKMYKEEGLKAFYKGVAPLWMRQIPYTMMKFACFERTVEALYKFVVPKPRSECSKPEQLVVTFVAGYIAGVFCAIVSHPADSVVSVLNKEKGSSASLVLKRLGFKGVWKGLFARIIMIGTLTALQWFIYDSVKVYFRLPRPPPPEMPESLKKKLGLTQ
B4: FADS2 (protein, UniProt O95864 1-444)
chain: MGKGGNQGEGAAEREVSVPTFSWEEIQKHNLRTDRWLVIDRKVYNITKWSIQHPGGQRVIGHYAGEDATDAFRAFHPDLEFVGKFLKPLLIGELAPEEPSQDHGKNSKITEDFRALRKTAEDMNLFKTNHVFFLLLLAHIIALESIAWFTVFYFGNGWIPTLITAFVLATSQAQAGWLQHDYGHLSVYRKPKWNHLVHKFVIGHLKGASANWWNHRHFQHHAKPNIFHKDPDVNMLHVFVLGEWQPIEYGKKKLKYLPYNHQHEYFFLIGPPLLIPMYFQYQIIMTMIVHKNWVDLAWAVSYYIRFFITYIPFYGILGALLFLNFIRFLESHWFVWVTQMNHIVMEIDQEAYRDWFSSQLTATCNVEQSFFNDWFSGHLNFQIEHHLFPTMPRHNLHKIAPLVKSLCAKHGIEYQEKPLLRALLDIIRSLKKSGKLWLDAYLHK
B5: MCM5 (protein, UniProt P33992 1-734)
chain: MSGFDDPGIFYSDSFGGDAQADEGQARKSQLQRRFKEFLRQYRVGTDRTGFTFKYRDELKRHYNLGEYWIEVEMEDLASFDEDLADYLYKQPAEHLQLLEEAAKEVADEVTRPRPSGEEVLQDIQVMLKSDASPSSIRSLKSDMMSHLVKIPGIIIAASAVRAKATRISIQCRSCRNTLTNIAMRPGLEGYALPRKCNTDQAGRPKCPLDPYFIMPDKCKCVDFQTLKLQELPDAVPHGEMPRHMQLYCDRYLCDKVVPGNRVTIMGIYSIKKFGLTTSRGRDRVGVGIRSSYIRVLGIQVDTDGSGRSFAGAVSPQEEEEFRRLAALPNVYEVISKSIAPSIFGGTDMKKAIACLLFGGSRKRLPDGLTRRGDINLLMLGDPGTAKSQLLKFVEKCSPIGVYTSGKGSSAAGLTASVMRDPSSRNFIMEGGAMVLADGGVVCIDEFDKMREDDRVAIHEAMEQQTISIAKAGITTTLNSRCSVLAAANSVFGRWDETKGEDNIDFMPTILSRFDMIFIVKDEHNEERDVMLAKHVITLHVSALTQTQAVEGEIDLAKLKKFIAYCRVKCGPRLSAEAAEKLKNRYIIMRSGARQHERDSDRRSSIPITVRQLEAIVRIAEALSKMKLQPFATEADVEEALRLFQVSTLDAALSGTLSGVEGFTSQEDQEMLSRIEKQLKRRFAIGSQVSEHSIIKDFTKQKYPEHAIHKVLQLMLRRGEIQHRMQRKVLYRLK
B6: HSD11B2 (protein, UniProt P80365 1-405)
chain: MERWPWPSGGAWLLVAARALLQLLRSDLRLGRPLLAALALLAALDWLCQRLLPPPAALAVLAAAGWIALSRLARPQRLPVATRAVLITGCDSGFGKETAKKLDSMGFTVLATVLELNSPGAIELRTCCSPRLRLLQMDLTKPGDISRVLEFTKAHTTSTGLWGLVNNAGHNEVVADAELSPVATFRSCMEVNFFGALELTKGLLPLLRSSRGRIVTVGSPAGDMPYPCLGAYGTSKAAVALLMDTFSCELLPWGVKVSIIQPGCFKTESVRNVGQWEKRKQLLLANLPQELLQAYGKDYIEHLHGQFLHSLRLAMSDLTPVVDAITDALLAARPRRRYYPGQGLGLMYFIHYYLPEGLRRRFLQAFFISHCLPRALQPGQPGTTPPQDAAQDPNLSPGPSPAVAR
B7: APRT (protein, UniProt P07741 1-180)
chain: MADSELQLVEQRIRSFPDFPTPGVVFRDISPVLKDPASFRAAIGLLARHLKATHGGRIDYIAGLDSRGFLFGPSLAQELGLGCVLIRKRGKLPGPTLWASYSLEYGKAELEIQKDALEPGQRVVVVDDLLATGGTMNAACELLGRLQAEVLECVSLVELTSLKGREKLAPVPFFSLLQYE
B8: CLDN6 (protein, UniProt P56747 1-220)
chain: MASAGMQILGVVLTLLGWVNGLVSCALPMWKVTAFIGNSIVVAQVVWEGLWMSCVVQSTGQMQCKVYDSLLALPQDLQAARALCVIALLVALFGLLVYLAGAKCTTCVEEKDSKARLVLTSGIVFVISGVLTLIPVCWTAHAIIRDFYNPLVAEAQKRELGASLYLGWAASGLLLLGGGLLCCTCPSGGSQGPSHYMARYSTSAPAISRGPSEYPTKNYV
B9: LPCAT1 (protein, UniProt Q8NF37 1-534)
chain: MRLRGCGPRAAPASSAGASDARLLAPPGRNPFVHELRLSALQKAQVALMTLTLFPVRLLVAAAMMLLAWPLALVASLGSAEKEPEQPPALWRKVVDFLLKAIMRTMWFAGGFHRVAVKGRQALPTEAAILTLAPHSSYFDAIPVTMTMSSIVMKAESRDIPIWGTLIQYIRPVFVSRSDQDSRRKTVEEIKRRAQSNGKWPQIMIFPEGTCTNRTCLITFKPGAFIPGAPVQPVVLRYPNKLDTITWTWQGPGALEILWLTLCQFHNQVEIEFLPVYSPSEEEKRNPALYASNVRRVMAEALGVSVTDYTFEDCQLALAEGQLRLPADTCLLEFARLVRGLGLKPEKLEKDLDRYSERARMKGGEKIGIAEFAASLEVPVSDLLEDMFSLFDESGSGEVDLRECVVALSVVCRPARTLDTIQLAFKMYGAQEDGSVGEGDLSCILKTALGVAELTVTDLFRAIDQEEKGKITFADFHRFAEMYPAFAEEYLYPDQTHFESCAETSPAPIPNGFCADFSPENSDAGRKPVRKKLD
B10: MBOAT7 (protein, UniProt Q96N66 1-472)
chain: MSPEEWTYLVVLLISIPIGFLFKKAGPGLKRWGAAAVGLGLTLFTCGPHTLHSLVTILGTWALIQAQPCSCHALALAWTFSYLLFFRALSLLGLPTPTPFTNAVQLLLTLKLVSLASEVQDLHLAQRKEMASGFSKGPTLGLLPDVPSLMETLSYSYCYVGIMTGPFFRYRTYLDWLEQPFPGAVPSLRPLLRRAWPAPLFGLLFLLSSHLFPLEAVREDAFYARPLPARLFYMIPVFFAFRMRFYVAWIAAECGCIAAGFGAYPVAAKARAGGGPTLQCPPPSSPEKAASLEYDYETIRNIDCYSTDFCVRVRDGMRYWNMTVQWWLAQYIYKSAPARSYVLRSAWTMLLSAYWHGLHPGYYLSFLTIPLCLAAEGRLESALRGRLSPGGQKAWDWVHWFLKMRAYDYMCMGFVLLSLADTLRYWASIYFCIHFLALAALGLGLALGGGSPSRRKAASQPTSLAPEKLREE

Sequences of proteins named here, by UniProt entry; tags and fusion partners are left off. Residues count along the entry.
UniProt Q13509: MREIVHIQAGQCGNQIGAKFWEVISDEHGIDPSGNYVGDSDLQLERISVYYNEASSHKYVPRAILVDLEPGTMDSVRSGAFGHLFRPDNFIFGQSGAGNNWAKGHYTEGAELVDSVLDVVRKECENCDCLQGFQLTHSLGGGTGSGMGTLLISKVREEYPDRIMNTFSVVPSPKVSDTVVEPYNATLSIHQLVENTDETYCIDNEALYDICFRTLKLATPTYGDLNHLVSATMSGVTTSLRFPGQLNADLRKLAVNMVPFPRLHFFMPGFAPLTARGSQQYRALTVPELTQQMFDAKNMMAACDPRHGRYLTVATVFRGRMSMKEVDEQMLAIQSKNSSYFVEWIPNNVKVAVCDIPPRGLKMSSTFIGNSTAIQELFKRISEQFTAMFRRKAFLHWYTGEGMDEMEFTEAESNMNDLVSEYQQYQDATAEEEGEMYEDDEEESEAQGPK
UniProt O95168: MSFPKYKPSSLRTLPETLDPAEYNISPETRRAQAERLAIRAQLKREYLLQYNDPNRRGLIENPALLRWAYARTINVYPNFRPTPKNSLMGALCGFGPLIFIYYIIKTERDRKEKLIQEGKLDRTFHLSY
UniProt Q8N8S7: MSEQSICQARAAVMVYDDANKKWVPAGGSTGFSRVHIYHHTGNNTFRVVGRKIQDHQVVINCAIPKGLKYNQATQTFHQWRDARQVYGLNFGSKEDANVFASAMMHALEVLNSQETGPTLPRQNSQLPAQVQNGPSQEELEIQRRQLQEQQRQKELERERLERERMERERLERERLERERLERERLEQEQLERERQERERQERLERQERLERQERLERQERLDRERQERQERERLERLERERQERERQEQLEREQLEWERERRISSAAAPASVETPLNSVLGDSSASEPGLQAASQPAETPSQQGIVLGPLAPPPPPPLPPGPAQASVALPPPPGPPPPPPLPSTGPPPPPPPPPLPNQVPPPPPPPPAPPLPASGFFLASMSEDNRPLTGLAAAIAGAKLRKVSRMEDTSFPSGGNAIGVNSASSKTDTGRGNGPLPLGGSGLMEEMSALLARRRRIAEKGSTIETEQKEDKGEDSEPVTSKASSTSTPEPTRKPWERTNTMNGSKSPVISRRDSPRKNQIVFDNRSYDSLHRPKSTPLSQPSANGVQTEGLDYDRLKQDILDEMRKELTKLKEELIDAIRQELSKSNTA
UniProt P53621: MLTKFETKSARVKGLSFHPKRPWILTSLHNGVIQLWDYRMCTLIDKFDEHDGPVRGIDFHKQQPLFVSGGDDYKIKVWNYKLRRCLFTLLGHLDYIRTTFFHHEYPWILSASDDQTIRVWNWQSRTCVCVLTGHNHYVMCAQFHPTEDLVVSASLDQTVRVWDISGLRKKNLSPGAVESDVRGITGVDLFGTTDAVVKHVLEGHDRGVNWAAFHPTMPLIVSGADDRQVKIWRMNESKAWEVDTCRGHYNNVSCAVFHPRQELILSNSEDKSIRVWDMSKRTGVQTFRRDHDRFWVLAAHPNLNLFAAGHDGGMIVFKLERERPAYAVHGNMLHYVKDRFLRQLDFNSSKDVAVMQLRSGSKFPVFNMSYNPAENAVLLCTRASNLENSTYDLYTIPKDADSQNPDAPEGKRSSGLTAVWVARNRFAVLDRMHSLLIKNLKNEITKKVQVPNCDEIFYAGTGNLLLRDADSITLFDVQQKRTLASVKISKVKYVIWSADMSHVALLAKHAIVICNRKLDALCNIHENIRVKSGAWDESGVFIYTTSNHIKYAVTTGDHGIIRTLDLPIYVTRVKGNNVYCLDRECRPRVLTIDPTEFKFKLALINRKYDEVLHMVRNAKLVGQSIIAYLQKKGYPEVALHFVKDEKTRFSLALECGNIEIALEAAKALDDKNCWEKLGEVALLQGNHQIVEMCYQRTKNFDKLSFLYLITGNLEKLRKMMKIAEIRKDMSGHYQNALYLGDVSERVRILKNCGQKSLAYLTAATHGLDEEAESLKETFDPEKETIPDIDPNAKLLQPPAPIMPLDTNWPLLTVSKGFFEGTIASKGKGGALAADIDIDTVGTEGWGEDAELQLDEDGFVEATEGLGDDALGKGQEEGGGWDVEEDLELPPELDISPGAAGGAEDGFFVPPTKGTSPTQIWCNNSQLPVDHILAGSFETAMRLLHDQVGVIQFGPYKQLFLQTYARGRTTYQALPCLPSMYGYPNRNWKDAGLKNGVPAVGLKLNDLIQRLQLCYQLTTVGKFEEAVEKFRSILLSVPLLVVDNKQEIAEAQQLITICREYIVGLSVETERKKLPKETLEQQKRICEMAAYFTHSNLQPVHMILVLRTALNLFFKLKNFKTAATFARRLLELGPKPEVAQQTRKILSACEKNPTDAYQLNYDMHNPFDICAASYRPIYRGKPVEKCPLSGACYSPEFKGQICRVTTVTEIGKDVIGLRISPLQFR
UniProt P20700: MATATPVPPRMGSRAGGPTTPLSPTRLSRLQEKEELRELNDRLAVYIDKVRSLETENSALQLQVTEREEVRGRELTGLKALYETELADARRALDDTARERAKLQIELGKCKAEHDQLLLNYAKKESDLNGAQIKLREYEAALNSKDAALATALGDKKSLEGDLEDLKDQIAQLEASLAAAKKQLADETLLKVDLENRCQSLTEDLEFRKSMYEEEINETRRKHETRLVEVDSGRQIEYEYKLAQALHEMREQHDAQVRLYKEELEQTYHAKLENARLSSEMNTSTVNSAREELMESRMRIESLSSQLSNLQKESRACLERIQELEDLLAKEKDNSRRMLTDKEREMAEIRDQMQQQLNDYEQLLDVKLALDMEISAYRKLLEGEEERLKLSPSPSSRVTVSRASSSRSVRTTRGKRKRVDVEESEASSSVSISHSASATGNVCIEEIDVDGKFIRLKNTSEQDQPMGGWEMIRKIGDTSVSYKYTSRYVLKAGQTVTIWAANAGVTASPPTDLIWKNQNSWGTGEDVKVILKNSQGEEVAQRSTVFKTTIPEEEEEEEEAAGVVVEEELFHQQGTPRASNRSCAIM
UniProt P35080: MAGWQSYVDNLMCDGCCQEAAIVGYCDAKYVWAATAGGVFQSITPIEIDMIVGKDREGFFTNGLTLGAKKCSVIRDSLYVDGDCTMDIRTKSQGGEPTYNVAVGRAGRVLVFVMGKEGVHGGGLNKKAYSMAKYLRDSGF
UniProt P23284, residues 34-216: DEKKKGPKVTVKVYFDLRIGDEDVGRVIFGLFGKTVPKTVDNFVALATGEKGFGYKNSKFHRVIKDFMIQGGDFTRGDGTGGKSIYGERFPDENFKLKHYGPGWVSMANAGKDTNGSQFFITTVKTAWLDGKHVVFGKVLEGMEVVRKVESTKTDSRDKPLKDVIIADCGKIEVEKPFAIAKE
UniProt O43684: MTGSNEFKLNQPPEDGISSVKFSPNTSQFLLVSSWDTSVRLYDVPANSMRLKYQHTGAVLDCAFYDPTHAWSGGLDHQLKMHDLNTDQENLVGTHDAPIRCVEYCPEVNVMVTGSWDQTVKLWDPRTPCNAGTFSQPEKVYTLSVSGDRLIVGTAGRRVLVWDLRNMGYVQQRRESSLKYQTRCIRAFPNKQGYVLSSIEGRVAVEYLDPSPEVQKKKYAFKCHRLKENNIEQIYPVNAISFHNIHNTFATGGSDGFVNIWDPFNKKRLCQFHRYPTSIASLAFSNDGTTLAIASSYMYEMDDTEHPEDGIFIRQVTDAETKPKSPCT
UniProt Q01082: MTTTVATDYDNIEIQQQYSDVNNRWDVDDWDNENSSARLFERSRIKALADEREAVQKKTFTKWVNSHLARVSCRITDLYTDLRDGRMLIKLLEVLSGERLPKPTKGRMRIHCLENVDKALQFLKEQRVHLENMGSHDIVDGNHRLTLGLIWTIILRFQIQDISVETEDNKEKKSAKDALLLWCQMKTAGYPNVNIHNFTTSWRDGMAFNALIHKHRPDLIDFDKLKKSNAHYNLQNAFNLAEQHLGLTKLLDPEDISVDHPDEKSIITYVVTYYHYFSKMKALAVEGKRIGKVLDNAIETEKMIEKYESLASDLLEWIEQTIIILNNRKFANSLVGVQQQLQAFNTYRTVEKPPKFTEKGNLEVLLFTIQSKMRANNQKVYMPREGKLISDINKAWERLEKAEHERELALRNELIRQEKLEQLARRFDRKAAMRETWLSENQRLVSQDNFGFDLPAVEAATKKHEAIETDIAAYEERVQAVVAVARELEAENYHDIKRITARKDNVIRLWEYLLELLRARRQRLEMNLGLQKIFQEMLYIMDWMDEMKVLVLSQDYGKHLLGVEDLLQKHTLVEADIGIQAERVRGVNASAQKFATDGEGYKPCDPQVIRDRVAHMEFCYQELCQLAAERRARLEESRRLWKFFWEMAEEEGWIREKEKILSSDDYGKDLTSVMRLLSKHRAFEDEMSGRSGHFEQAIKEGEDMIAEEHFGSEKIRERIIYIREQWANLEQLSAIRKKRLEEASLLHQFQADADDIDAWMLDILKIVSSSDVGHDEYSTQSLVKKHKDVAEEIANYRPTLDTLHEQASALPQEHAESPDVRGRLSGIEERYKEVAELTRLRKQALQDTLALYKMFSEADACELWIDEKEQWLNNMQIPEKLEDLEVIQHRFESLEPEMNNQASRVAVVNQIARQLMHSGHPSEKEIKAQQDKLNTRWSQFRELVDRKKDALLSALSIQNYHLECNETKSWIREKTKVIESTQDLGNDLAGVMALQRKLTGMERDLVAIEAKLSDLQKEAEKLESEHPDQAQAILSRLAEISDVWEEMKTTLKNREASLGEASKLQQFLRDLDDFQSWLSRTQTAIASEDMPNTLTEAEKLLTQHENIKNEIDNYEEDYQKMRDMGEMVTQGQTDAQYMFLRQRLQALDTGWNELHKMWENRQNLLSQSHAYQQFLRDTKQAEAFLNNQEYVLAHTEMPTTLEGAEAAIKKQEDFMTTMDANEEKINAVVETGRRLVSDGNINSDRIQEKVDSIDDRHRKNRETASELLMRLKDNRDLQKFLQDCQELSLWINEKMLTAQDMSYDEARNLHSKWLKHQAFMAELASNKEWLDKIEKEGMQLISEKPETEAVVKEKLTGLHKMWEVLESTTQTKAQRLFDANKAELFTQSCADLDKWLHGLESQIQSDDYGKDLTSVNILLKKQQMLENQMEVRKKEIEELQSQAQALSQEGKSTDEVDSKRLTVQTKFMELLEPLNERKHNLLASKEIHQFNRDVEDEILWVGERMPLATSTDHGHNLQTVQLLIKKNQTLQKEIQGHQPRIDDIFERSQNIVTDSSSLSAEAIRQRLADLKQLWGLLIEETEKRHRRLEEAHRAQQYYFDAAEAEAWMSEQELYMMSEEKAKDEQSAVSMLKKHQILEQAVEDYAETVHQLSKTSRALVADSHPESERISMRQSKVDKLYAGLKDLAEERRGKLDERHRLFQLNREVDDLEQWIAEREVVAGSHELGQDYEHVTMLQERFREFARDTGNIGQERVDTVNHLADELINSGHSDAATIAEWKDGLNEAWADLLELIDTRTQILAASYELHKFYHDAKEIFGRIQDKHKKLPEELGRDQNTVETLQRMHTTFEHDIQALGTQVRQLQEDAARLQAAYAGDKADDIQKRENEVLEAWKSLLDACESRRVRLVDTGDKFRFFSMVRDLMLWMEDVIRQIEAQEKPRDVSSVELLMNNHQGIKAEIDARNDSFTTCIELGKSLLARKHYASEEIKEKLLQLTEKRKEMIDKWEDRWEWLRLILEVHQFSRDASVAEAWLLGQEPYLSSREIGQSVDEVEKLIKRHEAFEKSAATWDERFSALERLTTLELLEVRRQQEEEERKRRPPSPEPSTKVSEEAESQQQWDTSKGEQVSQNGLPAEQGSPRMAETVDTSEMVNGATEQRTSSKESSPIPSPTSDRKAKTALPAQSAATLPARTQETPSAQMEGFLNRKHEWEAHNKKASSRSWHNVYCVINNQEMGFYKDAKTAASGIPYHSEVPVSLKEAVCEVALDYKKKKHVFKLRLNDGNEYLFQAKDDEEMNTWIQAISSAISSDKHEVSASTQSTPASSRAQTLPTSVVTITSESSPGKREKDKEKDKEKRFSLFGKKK
UniProt P62820: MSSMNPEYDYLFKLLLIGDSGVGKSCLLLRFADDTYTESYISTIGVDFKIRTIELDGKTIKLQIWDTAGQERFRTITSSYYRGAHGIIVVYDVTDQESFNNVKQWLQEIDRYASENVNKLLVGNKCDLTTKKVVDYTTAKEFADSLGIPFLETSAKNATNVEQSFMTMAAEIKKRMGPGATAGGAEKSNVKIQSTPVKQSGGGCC
UniProt P20042: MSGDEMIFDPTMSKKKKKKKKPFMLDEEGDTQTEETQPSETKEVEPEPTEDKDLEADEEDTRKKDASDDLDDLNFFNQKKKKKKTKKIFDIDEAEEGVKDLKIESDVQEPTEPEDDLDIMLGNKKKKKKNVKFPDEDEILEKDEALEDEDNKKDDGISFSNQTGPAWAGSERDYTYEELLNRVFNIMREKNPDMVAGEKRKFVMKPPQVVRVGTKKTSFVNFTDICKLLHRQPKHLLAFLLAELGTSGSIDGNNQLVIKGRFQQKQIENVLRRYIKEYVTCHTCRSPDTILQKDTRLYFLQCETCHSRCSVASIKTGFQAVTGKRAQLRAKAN

These molecules were tested against U2AF2-TurboID-HA (human) (UniProt P26368) (assay: proximity labelling; U2AF2-TurboID-HA induced with doxycycline for 4 h in pluripotent hiPSC; biotinylated proteins purified on streptavidin magnetic beads, LC-MS with label-free quantification; hits: Log2ΔLFQ >= 2 and p <= 0.05, pluripotent against mesoderm U2AF2-TurboID samples).

binding | Molecule
binds | TUBB3 (from UniProt Q13509 1-450)
binds | LETM1 (from UniProt O95202 116-739)
binds | PSMD3 (from UniProt O43242 1-534)
binds | PSMC2 (from UniProt P35998 1-433)
binds | EIF3L (from UniProt Q9Y262 1-564)
binds | SLC25A1 (from UniProt P53007 14-311)
binds | NDUFB4 (from UniProt O95168 1-129)
binds | SNRPA (from UniProt P09012 1-282)
binds | CCT7 (from UniProt Q99832 1-543)
binds | DDX21 (from UniProt Q9NR30 1-783)
binds | ZNF207 (from UniProt O43670 1-478)
binds | ENAH (from UniProt Q8N8S7 1-591)
binds | RAB7A (from UniProt P51149 1-207)
binds | TUBB4B (from UniProt P68371 1-445)
binds | COPA (from UniProt P53621 1-1224)
binds | LMNB1 (from UniProt P20700 1-586)
binds | PRMT1 (from UniProt Q99873 1-371)
binds | NDUFB7 (from UniProt P17568 1-137)

binding | Molecule
binds | PFN2 (from UniProt P35080 1-140)
binds | PPIB (from UniProt P23284 34-216)
binds | EIF3D (from UniProt O15371 1-548)
binds | BUB3 (from UniProt O43684 1-328)
binds | SPTBN1 (from UniProt Q01082 1-2364)
binds | RAB1A (from UniProt P62820 1-205)
binds | RCC2 (from UniProt Q9P258 1-522)
binds | EIF2S2 (from UniProt P20042 1-333)
binds | B1
binds | B2
binds | B3
binds | B4
binds | B5
binds | B6
binds | B7
binds | B8
binds | B9
binds | B10

Source: publication PMC12124498
